This passage reports cell number change and AC50 results from PubChem BioAssay AID2685 (National Center for Advancing Translational Sciences (NCATS), 2010).

Some of the results follow. Shown are side measurements of this screen, not its main read-out; they come without a call. The list favours compounds with an active or inconclusive main result. Words in brackets tell the shape of the fitted curve; partial curves, single points and poor fits give uncertain potencies.

The nature of the assay: qHTS Assay for Lipid Storage Modulators in Drosophila S3 Cells.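 As to cell number change: cells counted by Cell Tracker Red CMTPX staining in the red channel.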 The settings on record: BODIPY lipid droplet fluorescence, 18-24 h; for cell number change: measured here: cell count max response, cells fed with added oleic acid. In outline:
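Laser-scanning cytometry quantifies lipid droplet accumulation (500–530 nm total intensity; droplet/cell object ratio) in oleic acid-fed (400 uM added) Drosophila S3 cells treated with a concentration series. 20 uM Triacsin C defined 100% inhibition.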
(In qHTS, concentration-response curves come from the screen itself.)

Setting [1] is: measured here: lipid fluorescence (Fed channel) AC50, cells fed with added oleic acid.
Where [2] appears, read: measured here: cell number channel AC50, cells fed with added oleic acid.

Turning to `CC1CCN(C(=O)c2ccc(S(=O)(=O)N3CCOCC3)cc2)CC1`, the cell number change was -23%. The AC50 under setting [1] was 2310 nM [falling, partial curve, poor fit].
Take `CCCc1cc(C(=O)Nc2cc(C)ccc2O)no1`: the cell number change turned out to be 17.5%. Besides, under setting [1], the AC50 is 164 nM [rising, single point].
With `Cc1c(C(=O)N2CCc3ccccc3C2)oc2ccccc12`, the cell number change was -6.01%. For the same compound, the AC50 under setting [1] is 3260 nM [falling, full curve, poor fit].
`Cc1ccc(NC(=O)Nc2cccnc2)cc1Cl`: the cell number change was determined as 3.64%. Under setting [1], the AC50 was 6.51 nM [rising, full curve, poor fit].
Consider `O=C(CCCN1C(=O)/C(=C\c2cccc(Br)c2)SC1=S)Nc1cccnc1`, for which the cell number change was -24.1%. The AC50 under setting [1] was 29100 nM [falling, single point].
`O=C(NC1CCSc2ccccc21)c1ccc(F)c(S(=O)(=O)N2CCOCC2)c1` (centres undefined): the cell number change came to 1.62%. The AC50 under setting [1] was 18400 nM [rising, single point].
In the case of `CCc1nn(C(C)C(=O)Nc2cccc(C)c2C)c(=O)c2cc3occc3n12` (centres undefined), the cell number change came out at 52.8%. Further, the AC50 under setting [2] is 5.17 nM [rising, full curve, poor fit]. Also, the AC50 under setting [1] was 184 nM [rising, partial curve].
For `CC(C)c1nnc(NC(=O)c2ccc3c(c2)OCO3)s1`, the cell number change was -8.24%. The AC50 under setting [1] is 2060 nM [falling, partial curve].
With `COCCCNS(=O)(=O)c1ccc2[nH]c(=O)[nH]c2c1`, the cell number change is 10.9%.
On to `COc1cc(NC(=O)c2cc3ccccc3cc2OC)ccc1NC(=O)c1cccs1`, for which the cell number change was -45.5%. Further, the AC50 under setting [2] is 8200 nM [falling, partial curve]. The AC50 under setting [1] was 2590 nM [falling, full curve].
Turning to `N#CC[C@H](Cc1ccccc1)N1CCN(Cc2ccccc2)CCC1=O`, the cell number change came to 0.299%.
As for `NC(N)=N/N=C/c1ccc(OCc2ccccc2Cl)cc1`, the cell number change is -78.2%. Moreover, the AC50 under setting [2] is 29100 nM [falling, single point].
As for `Cc1c(N)c(C(C)(C)C)cc(C(C)(C)C)c1[N+](=O)[O-]`, the cell number change was -32.2%. Further, under setting [2], the AC50 was 18400 nM [falling, single point]. Moreover, under setting [1], the AC50 was 23100 nM [falling, single point].
As for `Cc1ccc(SCCNC(=O)CN(c2ccc3c(c2)OCO3)S(C)(=O)=O)cc1`, the cell number change worked out at 62.6%. Also, the AC50 under setting [2] was 20600 nM [rising, partial curve]. The AC50 under setting [1] is 29100 nM [rising, single point].
For the compound `N#C/C(=C\c1ccc(OC(=O)c2ccc(Br)s2)cc1)c1nc2ccccc2[nH]1`, the cell number change stood at 8.62%.
With `CCCCOc1ccc(C(=O)NC(=S)Nc2ccc(CN3CCOCC3)cc2)cc1`, the cell number change worked out at 22.5%. Under setting [2], the AC50 is 1640 nM [rising, full curve, poor fit]. The AC50 under setting [1] was 2310 nM [rising, full curve, poor fit].

Broadly, the AC50 is the midpoint of the concentration-response curve, whichever way the signal moves.
